Measured values taken from PubChem BioAssay AID2685 (National Center for Advancing Translational Sciences (NCATS), 2010).
The list shows a part of the results. Shown are side measurements of this screen, not its main read-out; they come without a call. Compounds called inactive in the main read-out are mostly missing here. The note in brackets gives the kind of curve behind each potency; many fits are weak.

Assay: qHTS Assay for Lipid Storage Modulators in Drosophila S3 Cells;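 on cell number change: cells counted by Cell Tracker Red CMTPX staining in the red channel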
Conditions: BODIPY lipid droplet fluorescence, 18-24 h; for cell number change: measured here: cell count max response, cells fed with added oleic acid
In short: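 Drosophila S3 cells got compounds at several concentrations plus oleic acid (400 uM solution). Laser-scanning cytometry with 488 nm excitation read lipid droplets at 500-530 nm and cells at 575-640 nm. Percent activity was relative to 20 uM Triacsin C.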

[1] = measured here: lipid fluorescence (Fed channel) AC50, cells fed with added oleic acid
[2] = measured here: cell number channel AC50, cells fed with added oleic acid

Structure (SMILES)	cell number change [%]	AC50 [1]	AC50 [2]
CCCCN(C(=O)CC1CCCC1)c1c(N)n(CCC)c(=O)[nH]c1=O	-19.8	–	–
CCOC(=O)c1c(-c2ccc(C)o2)csc1NC(=S)NC(=O)c1cccs1	15.1	0.731 µM [rising, partial curve]	–
CCOc1ccc2c(c1)-c1c(ssc1=S)C(C)(C)N2C	-88.8	0.103 µM [rising, full curve, poor fit]	–
O=C(N/N=C/c1cccs1)c1cc(-c2ccncc2)nc2ccccc12	6.09	32.6 µM [rising, single point]	–
CCC(=O)Nc1ccc2c(c1)nc(CCN1CCN(c3ccccn3)CC1)n2C	31.2	–	0.517 µM [rising, full curve, poor fit]
CCN(C(=O)COC(=O)/C=C/c1ccccc1)C1CCCCC1	22.3	–	0.116 µM [rising, full curve, poor fit]
Cc1cc(C)c2cc(C#N)c(N3CCCN(C(=O)c4cnccn4)CC3)nc2c1	-24.4	5.17 µM [falling, single point]	–
N#CC1=C(N)Oc2cc(N)ccc2C1c1ccc(F)cc1F (centres undefined)	-4.21	–	–
Cc1ccc(NC(=O)CCCn2c(=O)oc3ccccc32)c(O)c1	54.9	0.517 µM [rising, full curve]	23.1 µM [rising, single point]
CCOC(=O)c1ccc(NC(=O)c2n[nH]c(=O)c3ccccc23)cc1	4.46	0.146 µM [falling, full curve, poor fit]	–
Fc1cccc(C2CC(c3cccc(Br)c3)Nc3nnnn32)c1 (centres undefined)	-13	1.46 µM [rising, full curve, poor fit]	–
CCOC(=O)[C@H]1[C@H]2COc3ccc(OC)cc3[C@@H]2N2C(=O)c3ccc(Cl)cc3NC(=O)[C@@]12C	–	1.84 µM [falling, partial curve, poor fit]	–
Cc1ccc(-n2nnnc2SCC(=O)Nc2ccc3c(c2)COC3=O)cc1C	–	1.84 µM [falling, partial curve]	7.31 µM [falling, single point]
COc1ccc(C(=O)NC(=O)Nc2ncccc2C)cc1	79.9	3.66 µM [rising, full curve]	29.1 µM [rising, single point]
CC(C)Cn1c(N)c(C(=O)COC(=O)/C=C/c2cccs2)c(=O)n(C)c1=O	-30.8	–	32.6 µM [falling, single point]
Cc1nc2cc(Cl)c(Cl)cc2nc1C	19.7	2.31 µM [rising, full curve]	–
FC(F)(F)c1cccc(CON=C2CCN(c3ncc(C(F)(F)F)cc3Cl)CC2)c1	–	29.1 µM [rising, single point]	–
COc1cc(S(=O)(=O)Nc2ccc(C)cc2)ccc1N=Cc1c(C)c(C#N)c(=O)n(C)c1O	-41.8	–	18.4 µM [falling, single point]
CNC(=O)Nc1cc(C)nn1C	24.8	1.64 µM [falling, partial curve]	0.461 µM [falling, single point]

Structure (SMILES)	cell number change [%]	AC50 [1]	AC50 [2]
COc1ccc(-c2cc(C(=O)NNC3=NCCC3)c3c(C)nn(-c4ccccc4)c3n2)cc1	–	0.164 µM [rising, full curve, poor fit]	0.13 µM [rising, full curve, poor fit]
CCCOc1ccc(N2C(=O)CC(SC(=NCC)Nc3cccc(F)c3)C2=O)cc1 (centres undefined)	-30.8	9.2 µM [falling, partial curve]	16.4 µM [falling, single point]
CS(=O)(=O)c1nc(-c2ccc(F)cc2)cc(C(F)(F)F)n1	-20.4	1.3 µM [falling, full curve]	–
N#CC(c1ccc(O)cc1)c1ncc(C(F)(F)F)cc1Cl (centres undefined)	-35.2	–	–
CC(Sc1nc(N2CCOCC2)c2c(c1C#N)CC(C)(C)OC2)C(=O)Nc1ccccc1 (centres undefined)	-61.6	7.31 µM [falling, partial curve]	8.2 µM [falling, partial curve]
CCOc1ccc(N=c2cc(-c3ccc(OC)cc3)oc3ccccc23)cc1	-63.9	–	20.6 µM [falling, single point]
O=c1c2ccccc2nnn1COc1ccc(Cl)cc1Br	50.4	29.1 µM [rising, single point]	32.6 µM [rising, single point]
O=C(CC1CCCC1)NNC(=O)c1ccc(Br)cc1	-1.5	0.103 µM [rising, full curve, poor fit]	–
COC(=O)c1ccc(OC(=O)c2nn(C)cc2Cl)c(OC)c1	-3.46	–	–
COc1cc(Br)c(C2CC(=O)Nc3cc(OC)c(OC)cc32)cc1OC (centres undefined)	-25.4	–	–
CCOCCc1nn2c(=O)cc(CSCC(=O)Nc3cc(C)cc(C)c3)nc2s1	12.5	29.1 µM [rising, single point]	–
Cc1cc(N2C(=O)NC(=O)CC2C)c(C)cc1C(C)C (centres undefined)	-36.9	29.1 µM [falling, single point]	0.103 µM [falling, partial curve, poor fit]
CC(=O)Nc1ccc(S(=O)(=O)NCc2csc(-c3cccnc3)n2)cc1	141	7.31 µM [rising, partial curve]	8.2 µM [rising, partial curve]
COc1ccccc1-c1ccc(=O)n(CC(=O)NC2CCc3ccccc32)n1 (centres undefined)	-65.2	10.3 µM [falling, partial curve]	8.2 µM [falling, partial curve]
O=C(Nc1nnc(-c2ccc(Cl)cc2)o1)Nc1ccccc1Cl	2.78	–	–
CNC(=O)c1sc(-c2ccc(Cl)cc2)nc1C	1.08	16.4 µM [rising, single point]	–
COc1ccc(Nc2ncnc3scc(-c4ccc(OC)cc4)c23)cc1	-8.95	29.1 µM [falling, single point]	–
O=C(CN(Cc1ccc(F)cc1)C(=O)CCC(=O)Nc1ccccn1)NCc1ccco1	-18.1	–	–

Individual results from the results shown:
`O=C(CC1CCCC1)NNC(=O)c1ccc(Br)cc1` | AC50 [1]: 0.103 µM [rising, full curve, poor fit]
`CC(Sc1nc(N2CCOCC2)c2c(c1C#N)CC(C)(C)OC2)C(=O)Nc1ccccc1` (centres undefined) | cell number change [%]: -61.6
